Assay results taken from patent publication US20060122588A1, “Cryosurgery compositions and methods” (Regents of the University of Minnesota, priority 2002, published 2006).

System: AT-1 rat prostate tumor cells
Test: Post-thaw viability of AT-1 cell suspensions in various media on the directional solidification stage (Hoechst/Propidium Iodide membrane integrity assay)
Format: cell-based
Settings: at about −10° C.
Protocol: In freezing experiments with cell suspensions, a half eutectic concentration solution was mixed with cell culture media (Dulbecco's Modified Eagle's Medium/F-12) in 1 (salt solution): 2 (culture media) volume ratio.
AT-1 rat prostate tumor cells were cultured in vitro under standard tissue culture conditions, as are known. AT-1 cells were suspended in each eutectic changing solution, and kept at about 4° C.
Cultured AT-1 cells were separated from a culture flask by immersion in 0.05% (by volume) trypsin and 0.53 mM EDTA, and then suspended in 5% (by volume) fetal bovine serum (FBS)-supplemented medium such that the final trypsin concentration was <0.005% (by volume). After the separation, the cells were pelleted by centrifugation and the excess medium was removed. […]
Post-thaw viabilities of AT-1 cell suspensions in various media were assessed for varying end temperature of the freezing and thawing protocol on the directional solidification stage. […]
The concentrations of these solutions were determined so that the use of these solutions would not result in excessive killing of the AT-1 cells due to high osmotic pressure. […]
Viability of the AT-1 cell suspensions was measured by a membrane integrity assay using Hoechst and Propidium Iodide. […] After incubation, viability was assessed under a fluorescent microscope by scoring more than 200 cells for each sample.

Row | SMILES | eutectic solidification of the AT-1 cell suspension
1 | [Cl-].[K+] [KCl, potassium chloride] | does not
2 | O=[N+]([O-])[O-].[K+] [KNO3, potassium nitrate] | experiences eutectic solidification
